The list shows only some results of the screen, not a fair sample: it gathers tests that were run many times, whatever their T/C, doses with no T/C, and many T/C values between a quarter and a half above the control. Other doses and runs of a compound stand elsewhere. T/C is the treated group as % of the vehicle group. Some doses have a count of surviving animals in place of a T/C: the source holds a T/C of zero for them, seemingly a mark for toxic or unscored doses. Some doses without a T/C left all or most animals alive at the check, yet need not have been tolerated: survival well below the control is almost never listed, so the zero probably covers shortened survival too. Counts of survivors are from the toxicity check (mostly the fifth day) where no day follows; animals may have died later. Schedule codes are those of the source, taken here to give the interval after Q, in days (D) or hours (H), and the number of doses after X. Some entries hold several experiments; the values are given in rising order. Additions like (4×) stand for listed records that agree. For survival time, the PubChem record calls one and a half times the control and up active, and a quarter to a half above the control has no call in these data; cut-offs in other NCI protocols can differ. Some T/C values are followed by the survivors on the day toxicity was checked, most often the fifth; where none is given, no animal had died by that day.
System: BDF1 mice, P388 leukemia ip, median survival T/C
Experiment: NCI In Vivo Anticancer Drug Screen. Data for tumor model P388 Leukemia (intraperitoneal) in B6D2F1 (BDF1) mice
Details: T/C endpoint: median survival time, higher T/C = longer survival
How it was run: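 Transplantable tumour in mice; compound vs vehicle dosing; survival scored; ratio of treated to control reported.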

COc1cccc2c1C(=O)c1c(O)c3c(c(O)c1C2=O)C[C@@](O)(C(=O)CO)C[C@@H]3OC1CC(N)C(O)C(C)O1 (some centres not stated)
survivor count (dose: 8.0 mg/kg/injection, schedule: Q04DX003 (ip), vehicle: water): 7 of 8, 3 of 3, 8 of 8 (3×) | survivor count (dose: 8.0 mg/kg/injection, schedule: Q06HX004 (ip), vehicle: water): 6 of 8 | survivor count (dose: 8.4 mg/kg/injection, schedule: Q03HX008 (ip), vehicle: water): 8 of 8 | T/C (dose: 8.4 mg/kg/injection, schedule: Q04DX003 (ip), vehicle: water, evaluated on day 7): 166 and 236 % of control | T/C (dose: 8.4 mg/kg/injection, schedule: Q04DX003 (ip), vehicle: water, evaluated on day 62): 166 and 236 % of control | T/C (dose: 10.0 mg/kg/injection, schedule: Q01DX001 (ip), vehicle: saline, evaluated on day 5): 99, 104, 108, 141, 148, 154 (2×), 175, 178, 185, 187, 189, 202, 207 (2×), 233, 277, 424, 520, 530, 532, 554, 578, 584 % of control | T/C (dose: 10.0 mg/kg/injection, schedule: Q01DX001 (ip), vehicle: saline, evaluated on day 60): 99, 104, 108, 141, 148, 154, 175, 178, 185, 189, 202, 207 (2×), 221, 272, 277, 288, 293, 310, 424, 452, 482, 486, 515, 520, 527, 530, 531, 532, 533, 554, 565, 571 (2×), 578, 584 % of control | survivor count (dose: 10.0 mg/kg/injection, schedule: Q03HX008 (ip), vehicle: saline): 0 of 10 | survivor count (dose: 10.0 mg/kg/injection, schedule: Q03HX008 (sc), vehicle: saline): 0 of 10 | survivor count (dose: 12.0 mg/kg/injection, schedule: Q03HX008 (ip), vehicle: saline): 0 of 10 | survivor count (dose: 12.0 mg/kg/injection, schedule: Q03HX008 (sc), vehicle: saline): 0 of 10 | T/C (dose: 12.5 mg/kg/injection, schedule: Q01DX001 (ip), vehicle: saline, evaluated on day 5): 181, 197, 222, 362, 530 % of control | T/C (dose: 12.5 mg/kg/injection, schedule: Q01DX001 (ip), vehicle: saline, evaluated on day 60): 147 and 362 % of control | survivor count (dose: 12.5 mg/kg/injection, schedule: Q01DX001 (sc), vehicle: saline): 8 of 10 | T/C (dose: 13.33 mg/kg/injection, schedule: Q04DX003 (ip), vehicle: saline): 127 % of control | T/C (dose: 14.0 mg/kg/injection, schedule: Q04DX003 (ip), vehicle: water, evaluated on day 7): 128 % of control | T/C (dose: 14.0 mg/kg/injection, schedule: Q04DX003 (ip), vehicle: water, evaluated on day 62): 128 % of control | T/C (dose: 15.0 mg/kg/injection, schedule: Q01DX001 (ip), vehicle: saline, evaluated on day 5): 101, 117, 137, 164, 166, 172, 173, 185, 193, 194, 198, 213, 219, 221, 222, 225, 321, 519, 551, 553, 581, 586 % of control | T/C (dose: 15.0 mg/kg/injection, schedule: Q01DX001 (ip), vehicle: saline, evaluated on day 60): 101, 117, 137, 166, 172, 173, 193, 194, 196, 198 (2×), 213, 219, 222, 225, 233, 266, 274, 284 [9 of 10 alive], 321, 416 [8 of 10 alive], 482, 520, 529, 530, 531, 533 [9 of 10 alive], 538, 548, 551, 553, 566, 571, 581, 586, 600 % of control | T/C (dose: 15.0 mg/kg/injection, schedule: Q01DX001 (ip), vehicle: water, evaluated on day 7): 133 % of control | T/C (dose: 15.0 mg/kg/injection, schedule: Q01DX001 (ip), vehicle: water, evaluated on day 60): 133 % of control | T/C (dose: 15.0 mg/kg/injection, schedule: Q01DX001 (iv), vehicle: saline): 135 % of control | survivor count (dose: 15.0 mg/kg/injection, schedule: Q01DX001 (sc), vehicle: saline): 10 of 10 | T/C (dose: 16.0 mg/kg/injection, schedule: Q01DX001 (ip), vehicle: saline, evaluated on day 1): 498 % of control | T/C (dose: 16.0 mg/kg/injection, schedule: Q01DX001 (ip), vehicle: saline, evaluated on day 5): 254, 281, 304, 486 % of control | T/C (dose: 16.0 mg/kg/injection, schedule: Q01DX001 (ip), vehicle: saline, evaluated on day 6): 498 % of control | T/C (dose: 16.0 mg/kg/injection, schedule: Q01DX001 (ip), vehicle: saline, evaluated on day 8): 254 % of control | T/C (dose: 16.0 mg/kg/injection, schedule: Q01DX001 (ip), vehicle: saline, evaluated on day 11): 160 % of control | T/C (dose: 16.0 mg/kg/injection, schedule: Q01DX001 (ip), vehicle: saline, evaluated on day 90): 304 % of control | T/C (dose: 16.0 mg/kg/injection, schedule: Q04DX003 (ip), vehicle: water): 100 [5 of 6 alive], 103 [2 of 3 alive], 110 [5 of 6 alive], 113, 119, 125, 129 % of control | T/C (dose: 17.5 mg/kg/injection, schedule: Q01DX001 (ip), vehicle: saline, evaluated on day 5): 125, 168, 240 % of control | T/C (dose: 17.5 mg/kg/injection, schedule: Q01DX001 (ip), vehicle: saline, evaluated on day 60): 168 % of control | survivor count (dose: 17.5 mg/kg/injection, schedule: Q01DX001 (ip), vehicle: saline): 9 of 9 | survivor count (dose: 17.5 mg/kg/injection, schedule: Q01DX001 (sc), vehicle: saline): 7 of 10 | survivor count (dose: 20.0 mg/kg/injection, schedule: Q01DX001 (ip), vehicle: water): 6 of 7 | survivor count (dose: 20.0 mg/kg/injection, schedule: Q01DX001 (sc), vehicle: saline): 6 of 10 | T/C (dose: 22.5 mg/kg/injection, schedule: Q01DX001 (ip), vehicle: saline, evaluated on day 5): 57, 116, 130 (2×), 163, 174, 183, 197, 201 (2×), 213, 217, 234, 235, 435, 581, 584 % of control | T/C (dose: 22.5 mg/kg/injection, schedule: Q01DX001 (ip), vehicle: saline, evaluated on day 60): 116, 130 (2×), 163, 183, 197, 201 (2×), 213, 217, 221, 234, 235, 435, 581, 588 % of control | survivor count (dose: 22.5 mg/kg/injection, schedule: Q01DX001 (ip), vehicle: saline): 9 of 10 | T/C (dose: 32.0 mg/kg/injection, schedule: Q01DX001 (ip), vehicle: saline, evaluated on day 1): 69 % of control | T/C (dose: 32.0 mg/kg/injection, schedule: Q01DX001 (ip), vehicle: saline, evaluated on day 5): 64 and 77 % of control | T/C (dose: 32.0 mg/kg/injection, schedule: Q01DX001 (ip), vehicle: saline, evaluated on day 6): 69 % of control | survivor count (dose: 32.0 mg/kg/injection, schedule: Q01DX001 (ip), vehicle: saline): 10 of 10 | T/C (dose: 64.0 mg/kg/injection, schedule: Q01DX001 (ip), vehicle: saline, evaluated on day 1): 43 % of control | T/C (dose: 64.0 mg/kg/injection, schedule: Q01DX001 (ip), vehicle: saline, evaluated on day 5): 49 and 57 % of control | T/C (dose: 64.0 mg/kg/injection, schedule: Q01DX001 (ip), vehicle: saline, evaluated on day 6): 43 % of control | survivor count (dose: 64.0 mg/kg/injection, schedule: Q01DX001 (ip), vehicle: saline): 7 of 10 | T/C (dose: 128.0 mg/kg/injection, schedule: Q01DX001 (ip), vehicle: saline, evaluated on day 1): 35 % of control | T/C (dose: 128.0 mg/kg/injection, schedule: Q01DX001 (ip), vehicle: saline, evaluated on day 5): 43 % of control | T/C (dose: 128.0 mg/kg/injection, schedule: Q01DX001 (ip), vehicle: saline, evaluated on day 6): 35 % of control | survivor count (dose: 128.0 mg/kg/injection, schedule: Q01DX001 (ip), vehicle: saline): 0 of 10 | T/C (dose: 6670.0 micrograms/kg/injection, schedule: Q04DX003 (ip), vehicle: water): 125 % of control

Source: PubChem BioAssay AID328 (DTP/NCI, 2004)
